From patent US20230338340A1, “Methods of Treating Cystic Fibrosis” (The Trustees of Dartmouth College, priority 2020, published 2023)
For some assays here: Part of at least one peptide drawing is inferred or uncertain, most often the ends. For some assays here: At least one compound was matched to its structure with a doubt left.

Tests used:
WT-CFBE cells = test: Short-circuit current in WT-CFBE cells; assay type: cell-based; conditions: 5 μM, 10 μM and 20 μM, 4 hours
CAL PDZ [1] = molecular target: T1, CAL PDZ (Homo sapiens, UniProt Q9HD26); test: FP assay of peptide binding by CAL PDZ pre-labeled with compound (apparent KD)
T1 construct: Recombinant CAL PDZ was expressed and purified in E. coli as previously described; made in house; host or cells: E. coli
Description: Next, to probe the biochemical effect example 8 exerts on CAL PDZ-peptide binding, CAL PDZ was pre-labeled with example 8 and performed fluorescence polarization (FP) assays to determine apparent KD values for both unlabeled and labeled CAL PDZ.

CAL PDZ [2] = molecular target: T1, CAL PDZ; test: MALDI-TOF detection of covalent modification of CAL PDZ; assay type: binding
Method: Following incubation of 50 μM protein with 75 μM of example 8, the molecular weight of the samples was determined by MALDI (unlabeled CALP molecular weight: 9464±15 Da; labeled CALP molecular weight: 9623±9 Da).

Dab2-DH = molecular target: T2, Dab2-DH (Homo sapiens, UniProt P98082); test: ITC titration of STA02 peptide into Dab2-DH solution; assay type: binding; conditions: sodium phosphate buffer
T2 construct: Human-Dab2-DH, residues 31-191 (Uniprot: P98082); 10xHis (3C protease site) (N, cleaved yes); made in house; host or cells: E. coli BL21(DE3)RIL
T2 sequence (P98082 31-191): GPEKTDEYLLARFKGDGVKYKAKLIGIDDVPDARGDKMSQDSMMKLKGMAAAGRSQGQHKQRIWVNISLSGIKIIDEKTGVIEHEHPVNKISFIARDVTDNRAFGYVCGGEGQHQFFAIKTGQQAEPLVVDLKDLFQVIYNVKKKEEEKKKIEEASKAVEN

Row | SMILES | Change in short-circuit current (WT-CFBE cells) | Attenuation in peptide binding vs unlabeled CAL PDZ (CAL PDZ [1]) [fold] | Adduct size / mass shift observed on CAL PDZ (CAL PDZ [2]) [Da] | Covalent modification of CAL PDZ (CAL PDZ [2]) | ΔH (ITC) (Dab2-DH) [kcal/mol]
1 | COc1cc(O)c2c(c1)oc(=O)c1c3cc(O)c(O)cc3oc21 [Example 7, 1,8,9-trihydroxy-3-methoxy-6H-benzofuro[3,2-c]chromen-6-one] | no significant stimulation in current activity | -4 | ~300 | covalently modified CAL PDZ | 
2 | CSCC[C@H](NC(=O)[C@H](CC(N)=O)NC(=O)[C@H](CCC(=O)O)NC(=O)[C@H](CCC(N)=O)NC(=O)[C@@H]1CCCN1C(=O)[C@H](CCC(N)=O)NC(=O)[C@H](Cc1ccc(O)cc1)NC(=O)[C@H](CC(N)=O)NC(=O)[C@@H]1CCCN1C(=O)[C@H](CC(N)=O)NC(=O)[C@H](CC(=O)O)NC(=O)[C@H](Cc1ccccc1)NC(=O)CNC(=O)[C@H](CC(N)=O)NC(=O)[C@@H](N)CCC(N)=O)C(=O)N[C@@H](CCC(N)=O)C(=O)N[C@@H](C)C(=O)O [STA02] |  |  |  |  | -20.6
